Results from article PMC5069634.
Results are given in words; binding and its absence hold for the method and conditions named. In cells and extracts the contact can be indirect. Some entries that bind do so weakly or less than the wild type.

Molecular target: T1, cyclin-dependent kinase inhibitor p21 (mouse (endogenous in JB6 P+)) (UniProt P39689)
T1 sequence: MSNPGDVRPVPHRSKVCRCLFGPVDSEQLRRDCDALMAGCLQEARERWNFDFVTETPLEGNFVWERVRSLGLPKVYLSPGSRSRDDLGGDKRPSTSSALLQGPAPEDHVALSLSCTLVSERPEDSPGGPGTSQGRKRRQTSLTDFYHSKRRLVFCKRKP
Experiment: co-IP; endogenous proteins; cell lysate at 1 mg/mL incubated with anti-p21 or anti-Keap1 antibody overnight at 4 °C, then Protein A/G PLUS-Agarose for 4 h; washed three times with NP-40 lysis buffer; immunoblot for Nrf2; cells with or without DADS for 4 h

B1: NF-E2-related factor 2 (Nrf2) (protein, UniProt Q60795 1-597)
chain: MMDLELPPPGLQSQQDMDLIDILWRQDIDLGVSREVFDFSQRQKDYELEKQKKLEKERQEQLQKEQEKAFFAQFQLDEETGEFLPIQPAQHIQTDTSGSASYSQVAHIPKQDALYFEDCMQLLAETFPFVDDHESLALDIPSHAESSVFTAPHQAQSLNSSLEAAMTDLSSIEQDMEQVWQELFSIPELQCLNTENKQLADTTAVPSPEATLTEMDSNYHFYSSISSLEKEVGNCGPHFLHGFEDSFSSILSTDDASQLTSLDSNPTLNTDFGDEFYSAFIAEPSDGGSMPSSAAISQSLSELLDGTIEGCDLSLCKAFNPKHAEGTMEFNDSDSGISLNTSPSRASPEHSVESSIYGDPPPGFSDSEMEELDSAPGSVKQNGPKAQPAHSPGDTVQPLSPAQGHSAPMRESQCENTTKKEVPVSPGHQKAPFTKDKHSSRLEAHLTRDELRAKALHIPFPVEKIINLPVDDFNEMMSKEQFNEAQLALIRDIRRRGKNKVAAQNCRKRKLENIVELEQDLGHLKDEREKLLREKGENDRNLHLLKRRLSTLYLEVFSMLRDEDGKPYSPSEYSLQQTRDGNVFLVPKSKKPDTKKN
Question: For B1, which binding is on record?
Answer: binds
